In PubChem BioAssay AID687028 (Broad Institute, 2013):
This is a selection; strong and weak results do not stand in their true shares. Measured potencies and affinities stand elsewhere. Active and inactive are the calls of the source. How the calls were made is not given here.

Test: A549 cell toxicity, dose response, cytotoxicity control, plate reader, cherry-pick samples (AID 687028);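 further: cells incubated with compound for three days before reading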
Details: at 19.5 µM (top of the series)

Compound | activity change, negative = toxicity
CCCCCCCCc1ccc(O)cc1 | inactive: 3.26%
